For some of these results: A negative result means that nothing was seen under these conditions. At least one verdict rests on a figure or table, not on a statement of the authors. Tags and fusion partners may be left off the protein sequences shown. For some of these results: For at least one entry, the source does not settle the construct or the ends of the probe. For some of these results: A weaker result is weaker than the reference pair of the same experiment.

Here are results for 2 sequences from paper PMC8140157, “RTEL1 influences the abundance and localization of TERRA RNA” (Nature Communications, 2020).

In data set [1] the test system is T1, RTEL1∆762-1097 (human).
T1 sequence (looked up): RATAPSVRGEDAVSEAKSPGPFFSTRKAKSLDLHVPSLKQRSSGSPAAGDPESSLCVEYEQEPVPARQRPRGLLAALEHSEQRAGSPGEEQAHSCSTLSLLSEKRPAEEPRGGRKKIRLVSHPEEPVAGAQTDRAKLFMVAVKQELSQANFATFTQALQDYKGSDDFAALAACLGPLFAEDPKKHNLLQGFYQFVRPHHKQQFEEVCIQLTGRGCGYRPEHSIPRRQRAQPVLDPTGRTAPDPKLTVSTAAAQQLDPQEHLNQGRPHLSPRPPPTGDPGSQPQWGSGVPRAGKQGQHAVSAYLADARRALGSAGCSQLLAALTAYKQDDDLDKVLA
The data set can be described thus: EMSA. As to conditions: 300 mM KCl (acutely salt sensitive vs 150 mM); 20 mM Tris pH 7.5, 50 mM KCl, 0.5 mM TCEP, 0.5 mM MgCl2, 10% glycerol, 0.1% IGEPAL, room temperature 30 min; oligos refolded in 10 mM Tris pH 7.5, 100 mM KCl; recombinant protein; residues 762-1097; protein details: 6xHis; label: 5' fluorescein. (In general: Mobility shift assays separate free from complexed probe on a gel.)

The test system of data set [2] is T2, RTEL1∆762 (human).
T2 sequence (looked up): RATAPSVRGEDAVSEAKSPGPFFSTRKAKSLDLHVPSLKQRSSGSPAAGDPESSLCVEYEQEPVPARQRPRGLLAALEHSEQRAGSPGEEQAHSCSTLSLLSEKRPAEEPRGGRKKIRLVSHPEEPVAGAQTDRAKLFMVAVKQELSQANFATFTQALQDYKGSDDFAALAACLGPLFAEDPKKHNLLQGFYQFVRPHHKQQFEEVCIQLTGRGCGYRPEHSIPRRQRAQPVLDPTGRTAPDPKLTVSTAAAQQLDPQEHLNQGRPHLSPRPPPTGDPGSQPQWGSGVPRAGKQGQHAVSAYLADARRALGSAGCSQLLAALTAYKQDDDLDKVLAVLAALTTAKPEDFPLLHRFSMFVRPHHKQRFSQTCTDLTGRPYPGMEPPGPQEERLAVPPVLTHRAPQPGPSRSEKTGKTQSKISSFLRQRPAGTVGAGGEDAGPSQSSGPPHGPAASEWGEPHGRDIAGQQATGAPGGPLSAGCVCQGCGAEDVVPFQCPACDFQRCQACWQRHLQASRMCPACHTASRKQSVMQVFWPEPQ
Nature of the data set: EMSA. Particulars: 300 mM KCl (not acutely salt sensitive); 20 mM Tris pH 7.5, 50 mM KCl, 0.5 mM TCEP, 0.5 mM MgCl2, 10% glycerol, 0.1% IGEPAL, room temperature 30 min; oligos refolded in 10 mM Tris pH 7.5, 100 mM KCl; recombinant protein; residues 762-1300; protein details: 6xHis; label: 5' fluorescein.

Data set [3] has as its system T3, RTEL1∆1143 (human).
T3 sequence (looked up): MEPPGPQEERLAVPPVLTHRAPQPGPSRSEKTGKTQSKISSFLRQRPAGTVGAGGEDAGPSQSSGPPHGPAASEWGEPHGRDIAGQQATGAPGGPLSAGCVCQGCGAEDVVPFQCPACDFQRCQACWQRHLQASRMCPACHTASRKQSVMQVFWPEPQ
The data set can be described thus: fluorescence anisotropy. Particulars: direct binding, no binding signal; 20 mM Tris pH 7.5, 50 mM KCl, 0.5 mM TCEP, 0.5 mM MgCl2, 10% glycerol, 0.1% IGEPAL, room temperature 30 min; oligos refolded in 10 mM Tris pH 7.5, 100 mM KCl; recombinant protein; residues 1143-1300; protein details: 6xHis; label: 5' fluorescein. In general terms: Polarisation of emitted light reports the rotation of a fluorescent probe.

Take “UUAGGGUUAGGGUUAGGGUUAGGG [TERRA (FAM), folded in KCl]”: the binding result in data set [1] is recorded as “binds more weakly”; in data set [2], “binds”; in data set [3] it was “no binding”.
For the sequence “UUACCGUUACCGUUACCGUUACCG [TERRA-MUT (FAM)]”, in data set [3], the binding result is recorded as “no binding”.
